## Screening data

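A panel of P. falciparum strains inside erythrocytes is exposed to compounds for three days, then a DNA-binding dye reports the amount of parasite DNA. Each compound was titrated across a series from about 0.000037 to 29 µM. The number is the fitted AC50, the concentration giving a half-maximal change in signal; a lower value means higher potency, whether the curve shows a decrease or an increase. Calls follow the curve class and fit quality: every row here is inconclusive, covering signal-raising curves and weak, poorly fitted, partial or highest-dose-only inhibition curves.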

Values are in µM. All entries here are filed as inconclusive. Only part of the assay is shown, chiefly results filed as inconclusive. Potencies fitted to partial, single-point or poorly fitting curves are rough.

SMILES: OCCN1CCN(CCCN2c3ccccc3Sc3ccc(Cl)cc32)CC1
tested on / at: CP297
potency (µM): 5.726
curve: inhibitor, partial curve

SMILES: OCCN1CCN(CCCN2c3ccccc3Sc3ccc(Cl)cc32)CC1
tested on / at: CP201
potency (µM): 5.726
curve: inhibitor, single point

SMILES: OCCN1CCN(CCCN2c3ccccc3Sc3ccc(Cl)cc32)CC1
tested on / at: CP185
potency (µM): 3.548
curve: inhibitor, single point

SMILES: OCCN1CCN(CCCN2c3ccccc3Sc3ccc(Cl)cc32)CC1
tested on / at: P94_40
potency (µM): 3.981
curve: inhibitor, single point

SMILES: OCCN1CCN(CCCN2c3ccccc3Sc3ccc(Cl)cc32)CC1
tested on / at: CP211
potency (µM): 7.208
curve: inhibitor, single point

SMILES: OCCN1CCN(CCCN2c3ccccc3Sc3ccc(Cl)cc32)CC1
tested on / at: 3D7
potency (µM): 4.467
curve: inhibitor, partial curve, poor fit

SMILES: OCCN1CCN(CCCN2c3ccccc3Sc3ccc(Cl)cc32)CC1
tested on / at: TAB165
potency (µM): 3.162
curve: inhibitor, partial curve

SMILES: OCCN1CCN(CCCN2c3ccccc3Sc3ccc(Cl)cc32)CC1
tested on / at: CP217
potency (µM): 3.162
curve: inhibitor, partial curve

SMILES: OCCN1CCN(CCCN2c3ccccc3Sc3ccc(Cl)cc32)CC1
tested on / at: CP238
potency (µM): 3.548
curve: inhibitor, single point

SMILES: OCCN1CCN(CCCN2c3ccccc3Sc3ccc(Cl)cc32)CC1
tested on / at: CP325
potency (µM): 4.548
curve: inhibitor, partial curve

SMILES: OCCN1CCN(CCCN2c3ccccc3Sc3ccc(Cl)cc32)CC1
tested on / at: TAB113
potency (µM): 10
curve: inhibitor, single point

SMILES: OCCN1CCN(CCCN2c3ccccc3Sc3ccc(Cl)cc32)CC1
tested on / at: CP250
potency (µM): 3.162
curve: inhibitor, partial curve

SMILES: OCCN1CCN(CCCN2c3ccccc3Sc3ccc(Cl)cc32)CC1
tested on / at: TAB109
potency (µM): 3.162
curve: inhibitor, partial curve

SMILES: OCCN1CCN(CCCN2c3ccccc3Sc3ccc(Cl)cc32)CC1
tested on / at: CP215
potency (µM): 6.424
curve: inhibitor, single point

SMILES: OCCN1CCN(CCCN2c3ccccc3Sc3ccc(Cl)cc32)CC1
tested on / at: CP237
potency (µM): 3.162
curve: inhibitor, partial curve

SMILES: OCCN1CCN(CCCN2c3ccccc3Sc3ccc(Cl)cc32)CC1
tested on / at: ATS95
potency (µM): 3.981
curve: inhibitor, single point

SMILES: OCCN1CCN(CCCN2c3ccccc3Sc3ccc(Cl)cc32)CC1
tested on / at: CP262
potency (µM): 8.087
curve: inhibitor, single point

SMILES: OCCN1CCN(CCCN2c3ccccc3Sc3ccc(Cl)cc32)CC1
tested on / at: CP268
potency (µM): 7.208
curve: inhibitor, single point

SMILES: OCCN1CCN(CCCN2c3ccccc3Sc3ccc(Cl)cc32)CC1
tested on / at: DFO2036
potency (µM): 3.162
curve: inhibitor, partial curve

SMILES: OCCN1CCN(CCCN2c3ccccc3Sc3ccc(Cl)cc32)CC1
tested on / at: ATS189
potency (µM): 3.162
curve: inhibitor, partial curve

SMILES: OCCN1CCN(CCCN2c3ccccc3Sc3ccc(Cl)cc32)CC1
tested on / at: PAD
potency (µM): 4.467
curve: inhibitor, partial curve

SMILES: OCCN1CCN(CCCN2c3ccccc3Sc3ccc(Cl)cc32)CC1
tested on / at: CP305
potency (µM): 7.208
curve: inhibitor, single point

SMILES: OCCN1CCN(CCCN2c3ccccc3Sc3ccc(Cl)cc32)CC1
tested on / at: SC27B
potency (µM): 3.981
curve: inhibitor, partial curve

SMILES: OCCN1CCN(CCCN2c3ccccc3Sc3ccc(Cl)cc32)CC1
tested on / at: JCK
potency (µM): 10
curve: inhibitor, single point

SMILES: OCCN1CCN(CCCN2c3ccccc3Sc3ccc(Cl)cc32)CC1
tested on / at: CP315
potency (µM): 8.087
curve: inhibitor, single point

SMILES: O=c1oc2c(O)c(O)cc3c(=O)oc4c(O)c(O)cc1c4c23
tested on / at: PC26
potency (µM): 1.901
curve: inhibitor, single point

SMILES: O=c1oc2c(O)c(O)cc3c(=O)oc4c(O)c(O)cc1c4c23
tested on / at: CP291
potency (µM): 5.358
curve: inhibitor, partial curve, poor fit

2 of the entries, repeated:

SMILES,tested on / at,potency (µM),curve
OCCN1CCN(CCCN2c3ccccc3Sc3ccc(Cl)cc32)CC1,CP217,3.162,"inhibitor, partial curve"
OCCN1CCN(CCCN2c3ccccc3Sc3ccc(Cl)cc32)CC1,CP268,7.208,"inhibitor, single point"

Data taken from PubChem BioAssay AID504749, deposited by NCATS (2011).